Paper doi:10.1101/2025.06.12.659326
No constants are given. Whether binding was seen depends on the method and setting. In cells and extracts the contact can be indirect. Some binding calls cover weakened binding; strength is not graded here.

Sequences of proteins named here, by UniProt entry; tags and fusion partners are left off.
UniProt Q9Y6G9: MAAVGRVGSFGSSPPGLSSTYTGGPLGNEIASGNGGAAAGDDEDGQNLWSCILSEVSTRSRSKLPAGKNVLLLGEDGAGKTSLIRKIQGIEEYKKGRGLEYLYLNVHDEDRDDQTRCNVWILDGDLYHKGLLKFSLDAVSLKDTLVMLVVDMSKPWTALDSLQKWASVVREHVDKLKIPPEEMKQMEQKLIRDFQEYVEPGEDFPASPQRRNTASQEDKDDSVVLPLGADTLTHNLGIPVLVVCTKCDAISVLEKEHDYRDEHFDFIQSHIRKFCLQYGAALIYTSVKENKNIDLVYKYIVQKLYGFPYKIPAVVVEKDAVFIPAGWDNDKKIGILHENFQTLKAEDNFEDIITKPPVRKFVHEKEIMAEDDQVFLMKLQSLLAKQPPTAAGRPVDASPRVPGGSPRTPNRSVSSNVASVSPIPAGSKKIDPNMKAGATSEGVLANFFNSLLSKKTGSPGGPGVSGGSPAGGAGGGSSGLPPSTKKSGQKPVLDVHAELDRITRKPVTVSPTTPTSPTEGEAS

Biological target: T1, occludin (OCLN), endogenous in U2OS cells (human (endogenous in U2OS)) (UniProt Q16625)
T1 sequence: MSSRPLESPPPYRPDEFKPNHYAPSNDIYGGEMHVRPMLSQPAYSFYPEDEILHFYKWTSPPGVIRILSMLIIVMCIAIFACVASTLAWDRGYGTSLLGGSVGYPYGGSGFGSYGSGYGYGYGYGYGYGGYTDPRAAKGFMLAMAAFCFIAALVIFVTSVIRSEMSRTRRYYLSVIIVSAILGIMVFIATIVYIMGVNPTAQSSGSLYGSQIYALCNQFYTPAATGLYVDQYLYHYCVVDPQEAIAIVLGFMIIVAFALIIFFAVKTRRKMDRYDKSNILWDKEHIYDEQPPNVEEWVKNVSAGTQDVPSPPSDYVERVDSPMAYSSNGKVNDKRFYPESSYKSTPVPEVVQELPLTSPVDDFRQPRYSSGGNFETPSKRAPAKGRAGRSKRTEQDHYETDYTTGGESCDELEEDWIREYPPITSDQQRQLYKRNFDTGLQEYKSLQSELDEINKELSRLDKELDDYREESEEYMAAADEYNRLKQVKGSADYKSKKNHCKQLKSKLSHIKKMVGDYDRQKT
Assay: co-IP; endogenous proteins in U2OS cell lysate; IP with anti-dynein IC, anti-OCLN C-terminal or control IgG antibody and Protein G beads; Co-IP buffer 1% Nonidet P-40, 10% glycerol, 50mM Tris pH 7.5, 150mM NaCl, 2mM EDTA; immunoblot

In the case of “dynein light intermediate chain 1 (LIC1), endogenous in U2OS cells (from UniProt Q9Y6G9 1-523)”, the binding is reported as “binds”.
